The values below come from patent US9290537B2, “Method for cross-linking peptides” (UNIVERSITEIT GENT, priority 2010, dated 2016).

No constants are given. Whether binding was seen depends on the method and setting. Some entries that bind do so weakly or less than the wild type. Tags and fused reporters may be left off the sequences shown.

This assay addresses streptavidin (Streptomyces avidinii, UniProt P22629). The assay is described as follows: furan-oxidation cross-linking in solution (10 eq peptide, NBS activation, NaCNBH3 reduction), MALDI-TOF.

With AWSHPQFEK (N-terminal (2-furyl)-alanine, capped with 2-naphtoic acid) [free N-terminal furan-StrepTagII peptide 5.2 capped with 2-naphtoic acid], the binding entry is listed as “binds”.
Turning to WSHPQFEKA (C-terminal (2-furyl)-alanine; N-terminally capped with 2-naphtoic acid) [free C-terminal furan-StrepTagII peptide 5.3, N-terminally naphtoylated], the binding result is on record as “binds”.
